{
  "sequences": {"note": "Chains of the proteins cited; added tags and fusions are not shown. Lines headed by an entry give the natural chain unless they say otherwise; changes in a name come on top.", "UniProt Q8IUX4": "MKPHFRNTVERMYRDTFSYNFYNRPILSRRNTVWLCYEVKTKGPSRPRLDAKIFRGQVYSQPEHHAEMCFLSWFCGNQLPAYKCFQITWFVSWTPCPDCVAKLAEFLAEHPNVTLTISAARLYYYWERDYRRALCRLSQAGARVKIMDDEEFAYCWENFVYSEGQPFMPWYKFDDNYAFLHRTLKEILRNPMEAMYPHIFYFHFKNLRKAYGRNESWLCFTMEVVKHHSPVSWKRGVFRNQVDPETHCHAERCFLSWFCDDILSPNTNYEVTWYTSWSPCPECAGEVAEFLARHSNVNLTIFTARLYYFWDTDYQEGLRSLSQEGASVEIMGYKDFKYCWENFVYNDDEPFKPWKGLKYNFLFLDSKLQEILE"},
  "source": "PubChem BioAssay AID651814",
  "about": "(National Center for Advancing Translational Sciences (NCATS), 2012)",
  "note": "Hit rate of the full screen: of about 2,100 compounds, about 590 (28%) were called active. The inconclusive results got no clear call from the source; some entries with a clear call stand among them for comparison. Calls follow the shape of the dose curve; as a rule, active = well fitted inhibition curve with a large enough effect; inconclusive = small, poorly fitted or top-dose-only effect; inactive = flat fitted curve, though single readings scatter. Potencies beside an inconclusive call are fits to weak or partial responses and may not hold up. Potency is read from the fitted curve at half-maximal effect.",
  "data": [
    {"biological_target": "DNA dC->dU-editing enzyme APOBEC-3F (Homo sapiens) (UniProt Q8IUX4)", "experiment": "qHTS for inhibitors of Vif-A3F interactions: Cherry picks; also: nearly all actives have a fitted effect of over 70% in size;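 as to max response: % of control where 0% means no effect; active compounds raise eYFP fluorescence by blocking Vif-driven A3F loss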", "conditions": "HeLa A3F-eYFP + Vif (tagged APOBEC3F with the HIV-1 protein that degrades it), eYFP fluorescence, 24 h", "summary_of_the_method": "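Read-out: yellow fluorescence (ex 488 nm, em 500-530 nm) by laser-scanning cytometer after 24 h compound exposure, several concentrations, at 37 deg C. Cells: HeLa line stably co-expressing Vif and C-terminally eYFP-tagged A3F; MG132 served as positive control.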", "values": [
      {"smiles": "COc1ccccc1CNC(=O)c1ccc2nc3[nH]c4ccccc4c3nc2c1", "max response": "inactive: -25.8%"},
      {"smiles": "ClCC1NCC(c2ccccc2Cl)c2c1[nH]c1ccccc21", "note": "(stereo not drawn)", "max response": "inactive: -5.81%"},
      {"smiles": "COc1ccccc1N1C(=O)C(Cl)=C(Nc2ccccc2O)C1=O", "Potency": "inconclusive: 29.1 µM [inhibitor, single point]"},
      {"smiles": "COc1ccccc1N(C)S(=O)(=O)c1ccc(C(=O)OCC(=O)N2CCC2)cc1", "Potency": "inconclusive: 25 µM [inhibitor, single point]"},
      {"smiles": "COc1ccccc1/C=C/C=N/NC(=O)c1cc(-c2ccc(C)o2)[nH]n1", "Potency": "inconclusive: 17.7 µM [inhibitor, single point]"},
      {"smiles": "Cc1cc(C)cc(NC(=O)Cn2c(=O)oc3cc(S(=O)(=O)N4CCC(C)CC4)ccc32)c1", "Potency": "inconclusive: 14 µM [inhibitor, single point]"},
      {"smiles": "CCN(CC)c1nc(C=Cc2ccc(N(C)C)cc2)c2nccnc2n1", "Potency": "active: 1.84 µM"},
      {"smiles": "Cc1ccc2[nH]cc(/C=C/c3cc[n+](C)cc3)c2c1", "Potency": "active: 1.4 µM"},
      {"smiles": "O=C(C[C@@H]1C/C=C/CC[C@H](Cc2ccc(F)cc2)C(=O)OC[C@@H](Cc2ccccc2)NC1=O)N[C@H](CO)Cc1ccccc1", "Potency": "inconclusive: 13 µM [inhibitor, partial curve]"},
      {"smiles": "CC1CCN(c2ccc3c(c2)S(=O)(=O)c2cccc(C(=O)NCc4cccc(F)c4)c2C3=O)CC1", "Potency": "active: 14 µM"},
      {"smiles": "COc1ccc(-c2nnc(SCC(=O)NCc3ccccc3)nc2-c2ccc(OC)c(OC)c2)cc1OC", "Potency": "inconclusive: 2.31 µM [inhibitor, full curve]"},
      {"smiles": "COc1ccc(S(=O)(=O)NCc2ccccn2)cc1NC(=O)c1ccccc1", "Potency": "inconclusive: 15.8 µM [inhibitor, single point]"},
      {"smiles": "COCCNC(=S)NN=C1CCCCCC1", "max response": "inactive: 2.16%"},
      {"smiles": "CC(C)n1cc(/C=C/c2cc[n+](C)cc2)c2ccccc21", "Potency": "active: 1.4 µM"},
      {"smiles": "Cc1ccccc1Cn1c(=N)n(CC(=O)c2ccc([N+](=O)[O-])cc2)c2ccccc21", "Potency": "inconclusive: 29.1 µM [inhibitor, single point]"},
      {"smiles": "NC1=NC(=O)/C(=C/c2cc(Br)c(O)c(Br)c2)S1", "max response": "inactive: -7.06%"},
      {"smiles": "CN1/C(=C\\C=C2/SC(=S)N(CC(=O)O)C2=O)C(C)(C)c2ccccc21", "max response": "inactive: -6.86%"},
      {"smiles": "Cc1ccc2oc(/N=C(\\N)NC(=O)C(C)(C)C)nc2c1", "max response": "inactive: -3.74%"},
      {"smiles": "COc1ccccc1C1=NOC(COc2ccc3c(C)cc(=O)oc3c2)C1", "note": "(stereo not drawn)", "Potency": "inconclusive: 1.4 µM [inhibitor, full curve]"},
      {"smiles": "O=C1NC(c2ccc(Br)cc2)Nc2ccccc21", "note": "(stereo not drawn)", "Potency": "inconclusive: 4.98 µM [inhibitor, partial curve]"},
      {"smiles": "CCOC(=O)N1CCC(Nc2nc3ccccc3n3nnnc23)CC1", "max response": "inactive: -9.96%"},
      {"smiles": "COc1ccc2oc(=O)c(-c3nc4ccccc4o3)cc2c1", "Potency": "active: 20.6 µM"},
      {"smiles": "S=C(NCc1ccco1)Nc1ccc(Cl)cn1", "max response": "inactive: -0.0392%"},
      {"smiles": "CSc1nc2ccccc2cc1/C=C(\\C#N)c1ccccc1", "Potency": "inconclusive: 5.59 µM [inhibitor, partial curve]"},
      {"smiles": "O=C(c1ccc(CS(=O)c2ccccc2Cl)o1)N1CCN(c2ccccc2F)CC1", "note": "(stereo not drawn)", "Potency": "inconclusive: 0.651 µM [inhibitor, full curve, poor fit]"},
      {"smiles": "Cc1ccc2nc(/C(C#N)=C/c3ccc(-c4ccc(F)cc4F)o3)[nH]c2c1", "Potency": "active: 4.11 µM"},
      {"smiles": "Nc1nonc1-c1nc2ccccc2n1CC(=O)Nc1cccc(C(F)(F)F)c1", "Potency": "inconclusive: 18.4 µM [inhibitor, single point]"},
      {"smiles": "O=C(Cn1ncc(Cl)c(Cl)c1=O)NC(=O)NC1CCCCC1", "Potency": "inconclusive: 15.8 µM [inhibitor, single point]"},
      {"smiles": "Cc1nc2ccc(NC(=O)c3cc(S(=O)(=O)N(C)c4ccccc4)ccc3Cl)cc2s1", "max response": "inactive: -11.3%"},
      {"smiles": "COc1cccc(/C(O)=C/c2nc3ccc(C(=O)NCCc4cccc(C)c4)cc3[nH]c2=O)c1", "Potency": "active: 11.6 µM"},
      {"smiles": "Cc1cccn2c(=O)c3cc(C#N)c(=NC(=O)c4cccs4)n(CCCOC(C)C)c3nc12", "max response": "inactive: -23.5%"},
      {"smiles": "O=[N+]([O-])c1ccc(/C=C/C2=NN(c3ccccc3)C(c3ccco3)C2)o1", "note": "(stereo not drawn)", "Potency": "active: 2.59 µM"},
      {"smiles": "C/C(=N\\NC(=O)c1cc(C)nc2ccccc12)c1ccncc1", "max response": "inactive: -5.92%"},
      {"smiles": "Clc1ccccc1/C=N/NC1=Nc2cccc3cccc1c23", "Potency": "inconclusive: 13 µM [inhibitor, single point]"},
      {"smiles": "CCCN1CCc2c(sc(NC(=S)NC(=O)c3ccccc3)c2C#N)C1", "Potency": "inconclusive: 16.4 µM [inhibitor, single point]"},
      {"smiles": "CNCC(O)Cn1c2c(c3ccccc31)CCCC2", "note": "(stereo not drawn)", "max response": "inactive: 1.63%"},
      {"smiles": "COc1ccc2c(c1)/C(=C/c1cc(OC)c(OC)c(OC)c1)C(=O)N2", "Potency": "inconclusive: 1.4 µM [inhibitor, full curve]"},
      {"smiles": "Cc1cc(C)nc(Nc2n[nH]c(COc3cccc4ccccc34)n2)n1", "max response": "inactive: -15.5%"},
      {"smiles": "CC(=O)Nc1ccc(Nc2c3c4c(cccc4n(C)c2=O)C(=O)c2ccccc2-3)cc1", "max response": "inactive: -27.5%"},
      {"smiles": "C1=Cc2ccccc2/C1=C\\c1cc2c3c(c1)CCCN3CCC2", "Potency": "active: 18.4 µM"},
      {"smiles": "COc1ccc(NC(=O)C2(C)Cc3c(-c4cccc(NC(C)=O)c4)ccnc3O2)cn1", "note": "(stereo not drawn)", "Potency": "inconclusive: 1.98 µM [inhibitor, full curve]"},
      {"smiles": "COc1cc(Cl)c(C)cc1Nc1nc2ccccc2nc1NS(=O)(=O)c1ccccc1", "Potency": "inconclusive: 16.4 µM [inhibitor, single point]"},
      {"smiles": "O=C(/C=C/c1ccco1)NC(=S)Nc1cccc(-c2nc3ccccc3o2)c1", "Potency": "inconclusive: 2.8 µM [inhibitor, full curve]"},
      {"smiles": "Cc1ccc2nc(-c3ccccn3)c(NC3CCCC3)n2c1", "max response": "inactive: -1.86%"},
      {"smiles": "COC(=O)Cn1c(C)c(/C=C/c2cc[n+](C)cc2)c2ccccc21", "Potency": "active: 18.4 µM"},
      {"smiles": "CCOc1ccccc1N1CC(c2nc3ccccc3n2Cc2c(C)cc(C)cc2C)CC1=O", "note": "(stereo not drawn)", "max response": "inactive: -7.39%"},
      {"smiles": "O=C(NC(=S)Nc1ccccc1N1CCCCC1)c1ccccc1", "max response": "inactive: -2.38%"},
      {"smiles": "CNC(=O)C(Sc1nc(C)nc2c1oc1ccccc12)C(C)=O", "note": "(stereo not drawn)", "max response": "inactive: -18.1%"},
      {"smiles": "COc1ccc(/C=N/n2cc(-c3ccccc3)nc2N)cc1", "max response": "inactive: -18.9%"},
      {"smiles": "COc1cccc(C(=O)N/N=C/C(Br)=C/c2ccccc2)c1", "Potency": "inconclusive: 1.98 µM [inhibitor, full curve]"},
      {"smiles": "Cc1nnc(N2C(=O)c3cccc4c([N+](=O)[O-])ccc(c34)C2=O)s1", "Potency": "inconclusive: 18.4 µM [inhibitor, single point]"},
      {"smiles": "Cc1ccc(NC(=S)Nc2ccccn2)c(C)c1", "max response": "inactive: 1.92%"},
      {"smiles": "COc1cc(/C=N/NC(=O)c2[nH]nc3c2CCc2ccccc2-3)ccc1O", "Potency": "inconclusive: 25 µM [inhibitor, single point]"},
      {"smiles": "COc1cc2nc(/C=C/c3ccc(N(C)C)cc3)sc2cc1SC", "Potency": "active: 20.6 µM"},
      {"smiles": "Cc1ccc2c(c1)Oc1ccc(NC(=O)CCl)cc1C(=O)N2", "Potency": "inconclusive: 19.8 µM [inhibitor, single point]"},
      {"smiles": "Cc1cc2c(cc(C(=O)OCC(=O)NCc3cccs3)n2C(C)C)o1", "Potency": "inconclusive: 1.4 µM [inhibitor, full curve]"},
      {"smiles": "COc1ccccc1OCC(=O)NNC(=O)Nc1ccc(Cl)cc1", "Potency": "active: 14 µM"},
      {"smiles": "CCOC(=O)N1CCN(C(=O)c2ccccc2-c2ccccc2)CC1", "Potency": "inconclusive: 4.44 µM [inhibitor, full curve]"},
      {"smiles": "Cc1ccc(N/C(N)=N/c2nc(CSc3nnc(C)s3)cc(=O)[nH]2)c(C)c1", "Potency": "inconclusive: 1.98 µM [inhibitor, full curve]"},
      {"smiles": "COc1ccc(S(=O)(=O)Nc2cccc(-c3ccc4nncn4n3)c2)cc1F", "Potency": "inconclusive: 4.98 µM [inhibitor, partial curve]"},
      {"smiles": "Cc1ccc(CSc2nc(-c3ccc(C(C)(C)C)cc3)nc3cc(=O)[nH]n23)cc1", "max response": "inactive: -0.911%"},
      {"smiles": "COc1ccc(NC(=O)C2(C)Cc3c(-c4ccc5c(c4)OCO5)ccnc3O2)cn1", "note": "(stereo not drawn)", "Potency": "inconclusive: 2.23 µM [inhibitor, full curve]"},
      {"smiles": "NC(=S)N/N=C/c1ccccc1OC(=O)/C=C/c1ccccc1", "max response": "inactive: -3.11%"},
      {"smiles": "O=S(=O)(Nc1nc2ccccc2nc1N1CCN(c2ccccn2)CC1)c1ccc(Cl)cc1", "Potency": "active: 18.4 µM"},
      {"smiles": "CS(=O)(=O)Nc1ccc(C2=NN(S(=O)(=O)c3ccccc3)C(c3cccs3)C2)cc1", "note": "(stereo not drawn)", "max response": "inactive: -22.9%"},
      {"smiles": "O=S(=O)(Nc1nc2ccccc2nc1N1CCN(c2ccccc2)CC1)c1ccc(F)cc1", "max response": "inactive: -24.2%"},
      {"smiles": "Cn1c(=O)c2cc(NC(=O)NCc3ccc(F)cc3)ccc2n1C/C=C/c1ccccc1", "Potency": "inconclusive: 2.8 µM [inhibitor, full curve]"},
      {"smiles": "COc1cccc(Cn2c3ccc(NC(=O)CCc4ccc(F)cc4)cc3c(=O)n2C)c1", "Potency": "inconclusive: 3.14 µM [inhibitor, full curve]"},
      {"smiles": "Cc1ccccc1NC(=O)CSc1nc2cc3c(cc2cc1C)CCC3", "Potency": "inconclusive: 1.58 µM [inhibitor, full curve, poor fit]"},
      {"smiles": "CCOc1ncccc1C(=O)NCc1ccc(OC)cc1", "max response": "inactive: -24.5%"},
      {"smiles": "COc1ccc(C(=O)Nc2cc(C(C)=O)c(/C=C/N(C)C)oc2=O)cc1", "Potency": "active: 11.2 µM"},
      {"smiles": "Cn1c(=O)c2cc(NC(=O)NCc3ccccc3)ccc2n1C/C=C/c1ccccc1", "Potency": "inconclusive: 9.94 µM [inhibitor, partial curve]"},
      {"smiles": "CO/N=C\\CC(=O)Nc1ccc(Cl)c(Cl)c1", "Potency": "inconclusive: 3.96 µM [inhibitor, full curve, poor fit]"}
    ]}
  ]
}
